Results are given in words; binding and its absence hold for the method and conditions named. In cells and extracts the contact can be indirect. Some results given as binding are weak or reduced against the parent protein; the word gives no strength. Where a sequence is shown, tags or fusion partners need not be part of it.

The chains behind the UniProt entries cited, without tags or fusion partners. Where a name states a change or a piece, a line headed by the entry shows the natural chain unless it says otherwise.
UniProt P06537: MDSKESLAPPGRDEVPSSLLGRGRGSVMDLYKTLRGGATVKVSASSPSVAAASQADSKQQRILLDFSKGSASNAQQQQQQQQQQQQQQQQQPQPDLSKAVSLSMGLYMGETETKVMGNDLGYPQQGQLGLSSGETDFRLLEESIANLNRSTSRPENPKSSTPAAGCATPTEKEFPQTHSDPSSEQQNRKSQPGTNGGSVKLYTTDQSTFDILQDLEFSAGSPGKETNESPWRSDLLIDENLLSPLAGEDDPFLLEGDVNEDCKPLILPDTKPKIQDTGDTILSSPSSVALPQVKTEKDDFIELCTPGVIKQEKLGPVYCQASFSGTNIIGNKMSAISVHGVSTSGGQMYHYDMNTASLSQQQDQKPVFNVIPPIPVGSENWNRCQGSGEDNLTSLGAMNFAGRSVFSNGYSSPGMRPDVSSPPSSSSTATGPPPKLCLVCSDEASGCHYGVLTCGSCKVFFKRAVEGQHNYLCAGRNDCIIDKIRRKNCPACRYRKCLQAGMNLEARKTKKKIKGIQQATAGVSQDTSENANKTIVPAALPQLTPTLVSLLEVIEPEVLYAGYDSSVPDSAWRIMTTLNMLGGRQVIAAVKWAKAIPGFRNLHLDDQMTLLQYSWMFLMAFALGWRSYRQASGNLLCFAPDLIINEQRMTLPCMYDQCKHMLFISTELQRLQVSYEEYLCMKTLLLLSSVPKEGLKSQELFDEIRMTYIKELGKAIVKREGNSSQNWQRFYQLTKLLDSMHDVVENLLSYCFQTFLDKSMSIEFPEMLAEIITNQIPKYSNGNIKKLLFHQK
UniProt P04150: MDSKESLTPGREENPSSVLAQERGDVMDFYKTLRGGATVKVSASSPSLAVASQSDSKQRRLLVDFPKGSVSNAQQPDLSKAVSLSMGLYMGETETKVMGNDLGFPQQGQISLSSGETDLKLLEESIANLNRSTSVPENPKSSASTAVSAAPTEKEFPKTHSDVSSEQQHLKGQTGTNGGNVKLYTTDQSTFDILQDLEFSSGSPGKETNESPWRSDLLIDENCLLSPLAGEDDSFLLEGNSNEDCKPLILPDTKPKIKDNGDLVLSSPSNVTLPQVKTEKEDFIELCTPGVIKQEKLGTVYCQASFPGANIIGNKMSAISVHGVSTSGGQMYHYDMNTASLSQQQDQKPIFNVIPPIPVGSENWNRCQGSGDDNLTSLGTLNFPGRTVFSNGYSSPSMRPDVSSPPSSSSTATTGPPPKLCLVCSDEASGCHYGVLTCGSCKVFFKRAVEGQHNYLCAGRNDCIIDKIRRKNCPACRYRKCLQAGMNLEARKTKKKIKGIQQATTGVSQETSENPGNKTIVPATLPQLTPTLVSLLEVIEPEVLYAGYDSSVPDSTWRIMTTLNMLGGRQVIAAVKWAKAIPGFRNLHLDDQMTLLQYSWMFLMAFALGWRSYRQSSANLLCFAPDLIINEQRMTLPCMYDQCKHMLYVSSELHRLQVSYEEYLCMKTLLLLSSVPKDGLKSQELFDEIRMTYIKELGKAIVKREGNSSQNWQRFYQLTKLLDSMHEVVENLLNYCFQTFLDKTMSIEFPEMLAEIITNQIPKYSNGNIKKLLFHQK

The target of experiment [1] is T1, GFP-FKBP51 (Homo sapiens (Human)) (UniProt Q13451).
T1 sequence: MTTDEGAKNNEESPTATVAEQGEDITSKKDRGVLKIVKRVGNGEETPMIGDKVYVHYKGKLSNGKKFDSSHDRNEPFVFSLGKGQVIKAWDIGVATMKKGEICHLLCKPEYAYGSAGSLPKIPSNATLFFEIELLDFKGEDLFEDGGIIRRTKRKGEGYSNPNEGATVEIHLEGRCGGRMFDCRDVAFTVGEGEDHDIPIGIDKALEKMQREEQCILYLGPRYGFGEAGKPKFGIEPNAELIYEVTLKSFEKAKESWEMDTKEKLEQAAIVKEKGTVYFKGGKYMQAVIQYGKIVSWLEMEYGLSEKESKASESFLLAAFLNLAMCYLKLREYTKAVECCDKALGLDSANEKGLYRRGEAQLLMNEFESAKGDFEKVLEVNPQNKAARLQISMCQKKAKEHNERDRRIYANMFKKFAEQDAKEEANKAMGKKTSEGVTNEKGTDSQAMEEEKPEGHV
In words: co-immunoprecipitation of Flag-GR with GFP-FKBP51 in transfected HEK293T cells.

Experiment [2] addresses glucocorticoid receptor (GR), endogenous, mouse brain / mouse lymphocyte lysate (mouse) (UniProt P06537). In words: GST pull-down from mouse brain tissue, Western blot. In general terms: Immunoblotting shows a protein as a band on a membrane.

Regarding “Flag-tagged GR, wild-type (from UniProt P04150 1-777) (receptor)”, the binding result in experiment [1] is reported as “binds”.

On to “Flag-tagged GR S211E mutant (phosphomimetic GR mutant) (from UniProt P04150 1-777) (receptor)”, for which, in experiment [1], the binding entry is “binds”.

With “Flag-tagged GR S211A mutant (non-phosphorylated GR mutant) (from UniProt P04150 1-777) (receptor)”, the binding entry in experiment [1] is “binds”.

B1: GST-TPR3 (peptide, not shown: a dimerising Fc or GST)
chain: GEAQLLMNEFESAKGDFEKVLEVNPQNKAARLQISMCQKKAKEHNERDRR
As to B1, the binding entry in experiment [2] is “binds”.

B2: GST-FKBP51_TPR (GST fusion of the tetratricopeptide repeat domain of FKBP51) (other)
chain: EMDTKEKLEQAAIVKEKGTVYFKGGKYMQAVIQYGKIVSWLEMEYGLSEKESKASESFLLAAFLNLAMCYLKLREYTKAVECCDKALGLDSANEKGLYRRGEAQLLMNEFESAKGDFEKVLEVNPQNKAARLQISMCQKKAKEHNERDRRIYANMFKKFAEQDAKEEANKAMGKKTSEGVTNEKGTDSQAMEEEKPEGHV
notes: also called GST-TPR; FKBP51 TPR domain; not shown: glutathione S-transferase (GST) tag; vector stated only for the GR fragments (pGEX-4T3)
Take B2: the binding result in experiment [2] is given as “binds”.

The values above are taken from US20220041691A1, “METHODS FOR DIAGNOSING OR TREATING POST-TRAUMATIC STRESS DISORDER, AND COMPOSITIONS THEREFOR” (Centre for Addiction and Mental Health, priority 2018, published 2022).
